No constants are given. Whether binding was seen depends on the method and setting. Some entries that bind do so weakly or less than the wild type.
Tests used:
[1] = molecular target: HA of H3N2 A/HK/1/68 (influenza A virus) (UniProt Q91MA7); assay: BLI (Octet)
[2] = molecular target: HA of B/Lee/40 (influenza B virus) (UniProt P03460); assay: BLI (Octet)

Amino acid sequences for entries named in this document (tags omitted). Residues count along the entry.
UniProt P03460, residues 16-552: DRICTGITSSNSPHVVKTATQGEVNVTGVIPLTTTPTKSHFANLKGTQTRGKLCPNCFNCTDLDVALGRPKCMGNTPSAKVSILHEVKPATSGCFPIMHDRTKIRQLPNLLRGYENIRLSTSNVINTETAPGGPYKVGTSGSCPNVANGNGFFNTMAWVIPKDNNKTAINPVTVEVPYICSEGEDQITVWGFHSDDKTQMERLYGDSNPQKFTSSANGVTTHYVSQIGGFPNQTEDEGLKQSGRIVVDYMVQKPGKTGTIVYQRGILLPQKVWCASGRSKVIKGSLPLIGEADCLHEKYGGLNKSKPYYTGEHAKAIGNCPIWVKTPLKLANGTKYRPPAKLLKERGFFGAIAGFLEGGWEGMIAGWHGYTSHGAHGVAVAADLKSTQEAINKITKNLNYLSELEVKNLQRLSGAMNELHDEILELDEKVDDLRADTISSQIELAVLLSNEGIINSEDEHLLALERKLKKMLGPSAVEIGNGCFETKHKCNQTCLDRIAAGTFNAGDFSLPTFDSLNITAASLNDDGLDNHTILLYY

B1: SD1048 (VHH)
VHH: EVQLVESGGGVVQPGGSLRLSCVASGRTSSMYSIGWFRQAPGKEREFVAVIGWYSGRTFYTDSMKGRFTISRDNARNTVYLQMNSLKPEDTAVYYCAAANGPLRLSNQADYWGQGTQVTVSS
B1 was tested. Which binding [1] did it give?
The binding was “binds”.

B2: SD1046 (VHH)
VHH: EVQLVESGGGLVQAGDSLRISCAASGRTLSIYSMGWFRQAPGKEREFVATIGWNSGRTFYPDSLKGRFTISRDNARNTLYLQMNNLRPEDTAVYYCAAAKGPLRLSSQADYWGQGTQVTVSS
With B2 as the binder, how does the binding [1] read?
Its binding is “binds”.

B3: SD1049 (VHH)
VHH: EVQLVESGGGLVQAGGSLRLSCAASGRTLSLYSVGWFRQAPGKEREFVATIGWNSGRTFYVDSMKGRFTISRDNAKNTVYLQMNDLKVEDTAVYYCAAAKGPLRLSNQADYWGQGTQVTVSS
For B3, which binding [1] is on record?
The binding was “binds”.

B4: SD1086 (VHH)
VHH: EVQLVESGGGLVQAGGSLRLSCTASGSISSIDYMRWYRQYPGKHRELVATITSGGAADSRDSVKGRFTVSRGNAANTMYLQMNNLKPEDTAVYYCNAYGLEIGAHWGRGTQVTVSS
For B4, which binding [2] is on record?
Its binding is “binds”.

Source: patent publication US20190359693A1
